The source of these data is ChEMBL document CHEMBL4651402, “Screening of ~5500 FDA-approved drugs and clinical candidates for anti-SARS-CoV-2 activity” (2021).

The test system of this test is SARS-CoV-2. As to the kind of experiment: microbe, parasite or virus in culture. To be noted: Severe acute respiratory syndrome coronavirus 2, Vero C1008, 48 h.

Take `CNCCCC12CCC(c3ccccc31)c1ccccc12` [MAPROTILINE]: the IC50 is greater than 20 µM. Further, the IC50 (read-out: pIC50 (converted)) was greater than 20 µM.
`CN(C)CCOC(c1ccccc1)c1ccccc1` [DIPHENHYDRAMINE] showed an IC50 greater than 20 µM. The IC50 (read-out: pIC50 (converted)) is greater than 20 µM.
`CC(C)NC[C@@H](O)COc1cccc2ccccc12` [DEXPROPRANOLOL]: the IC50 is greater than 20 µM. Besides, the IC50 (read-out: pIC50 (converted)) is greater than 20 µM.
`CC(C)NCC(O)COc1cccc2ccccc12` (configuration not stated) [PROPRANOLOL]: the IC50 was greater than 20 µM. Further, the IC50 (read-out: pIC50 (converted)) is greater than 20 µM.
The compound `CCC(C)C(C(=O)OCC[N+](C)(CC)CC)c1ccccc1` (configuration not stated) [VALETHAMATE] came in with an IC50 greater than 20 µM. Moreover, the IC50 (read-out: pIC50 (converted)) was greater than 20 µM.
The compound `N#Cc1ccc(C2CCCc3cncn32)cc1` (configuration not stated) [FADROZOLE] gave an IC50 greater than 20 µM. The IC50 (read-out: pIC50 (converted)) was greater than 20 µM.
With `Cc1ccc(C(=O)NCCCCCC(=O)Nc2ccccc2N)cc1`, the IC50 was greater than 20 µM. The IC50 (read-out: pIC50 (converted)) is greater than 20 µM.
Regarding `CN1[C@@H]2CC[C@H]1C[C@@H](OC(=O)C(O)c1ccccc1)C2` (some centres not stated) [HOMATROPINE], the IC50 is greater than 20 µM. Under “read-out: pIC50 (converted)”, the IC50 is greater than 20 µM.
`OCCOCCN1CCN(C2=Nc3ccccc3Sc3ccccc32)CC1` [QUETIAPINE] displayed an IC50 greater than 20 µM. Also, the IC50 (read-out: pIC50 (converted)) was greater than 20 µM.
For `CC(C)NC[C@H](O)COc1cccc2ccccc12` [LEVOPROPRANOLOL], the IC50 was greater than 20 µM. Where the note is “read-out: pIC50 (converted)”, the IC50 was greater than 20 µM.
`CN1CC[C@]23c4c5ccc(O)c4O[C@H]2[C@@H](O)C=C[C@H]3[C@H]1C5` [MORPHINE] showed an IC50 greater than 20 µM. Besides, where the note is “read-out: pIC50 (converted)”, the IC50 is greater than 20 µM.
